Laboratory results reported in the supplement of paper PMC7024190.
Some of the results follow. Repeats in this data set agree poorly, so a single value says little.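 The cells were human embryonic kidney cells carrying a Renilla luciferase gene, driven by the HSV-TK promoter, on a plasmid put in briefly by transfection. This is the first-round screen of about ten thousand compounds, looking for ones that raise reporter output.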

Each molecule was assayed on HEK 293FT (assay: log relative Renilla luciferase luminescence (reporter expression vs reference, reference not stated) (log (base not stated)); higher = higher recombinant reporter expression). Conditions: 10 µM; time after transfection 48 h.
Method: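 HEK 293FT cells transiently transfected with pRL-TK (Renilla luciferase) were treated with compounds at 10 uM and luminescence was read about 42 h later. Values are log relative Renilla luminescence (log base and reference not stated). Single-pass screen; ICCB Known Bioactives library.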

| Structure (SMILES) | log |
| --- | --- |
| COc1cccc2c1cc([N+](=O)[O-])c1c(C(=O)O)cc3c(c12)OCO3 [Aristolochic acid] | -0.562 |
| CCCCC[C@@H](/C=C/C=C\CCCCCCCC(=O)O)OO | 0.0921 |
| Nc1ccncc1 [4-Aminopyridine] | -0.00816 |
| CCCCCCCCCCCCCCCCOC[C@@H](O)COP(=O)([O-])OCC[N+](C)(C)C | -0.179 |
| CCCCCCCCCCCCCC(=O)O[C@@H]1[C@@H](C)[C@@]2(O)[C@@H](C=C(CO)C[C@]3(O)C(=O)C(C)=C[C@@H]23)[C@@H]2C(C)(C)[C@]12OC(C)=O [Phorbol 12 myristate 13 acetate] | -0.242 |
| C=C1[C@@H](C)[C@H]2[C@H](Cc3ccccc3)NC(=O)[C@]23[C@H](OC(C)=O)/C=C/[C@@](C)(O)C(=O)[C@@H](C)C/C=C/[C@H]3[C@@H]1O [Cytochalasin D] | -0.941 |
| C=C(C)[C@H]1O[C@H]2CC[C@@]3(C)[C@@](O)(CC[C@H]4[C@@H]5OC(C)(C)[C@H]6C[C@@H]7C(=C)Cc8c(Cl)cc9[nH]c(c5c9c8[C@@]76O)[C@@]43C)[C@@]23O[C@H]3[C@H]1O [Penitrem A] | 0.337 |
| CC(C)(C)c1cc(C=C(C#N)C#N)cc(C(C)(C)C)c1O [Tyrphostin 9] | -0.421 |
| CCCCC/C=C\C/C=C\C/C=C\C/C=C\CCCC(=O)N[C@H](C)CO [(R)-Methanandamide] | -0.126 |
| C=C1[C@@H](O)[C@@H]2O[C@]3(CC[C@H](/C=C/[C@@H](C)[C@@H]4CC(C)=C[C@@]5(O[C@H](C[C@@](C)(O)C(=O)O)CC[C@H]5O)O4)O3)CC[C@H]2O[C@@H]1[C@@H](O)C[C@H](C)[C@H]1O[C@@]2(CCCCO2)CC[C@H]1C [Okadaic acid] | -2.1 |
| NC1CCc2cc(O)c(O)cc2C1 (stereo unspecified) | -0.25 |

A portion from the list above:

| Structure (SMILES) | log |
| --- | --- |
| C=C(C)[C@H]1O[C@H]2CC[C@@]3(C)[C@@](O)(CC[C@H]4[C@@H]5OC(C)(C)[C@H]6C[C@@H]7C(=C)Cc8c(Cl)cc9[nH]c(c5c9c8[C@@]76O)[C@@]43C)[C@@]23O[C@H]3[C@H]1O [Penitrem A] | 0.337 |
| CC(C)(C)c1cc(C=C(C#N)C#N)cc(C(C)(C)C)c1O [Tyrphostin 9] | -0.421 |
